Experimental findings from publication PMC11449308 are described below.

Chains of the proteins cited; added tags and fusions are not shown.
UniProt P70168: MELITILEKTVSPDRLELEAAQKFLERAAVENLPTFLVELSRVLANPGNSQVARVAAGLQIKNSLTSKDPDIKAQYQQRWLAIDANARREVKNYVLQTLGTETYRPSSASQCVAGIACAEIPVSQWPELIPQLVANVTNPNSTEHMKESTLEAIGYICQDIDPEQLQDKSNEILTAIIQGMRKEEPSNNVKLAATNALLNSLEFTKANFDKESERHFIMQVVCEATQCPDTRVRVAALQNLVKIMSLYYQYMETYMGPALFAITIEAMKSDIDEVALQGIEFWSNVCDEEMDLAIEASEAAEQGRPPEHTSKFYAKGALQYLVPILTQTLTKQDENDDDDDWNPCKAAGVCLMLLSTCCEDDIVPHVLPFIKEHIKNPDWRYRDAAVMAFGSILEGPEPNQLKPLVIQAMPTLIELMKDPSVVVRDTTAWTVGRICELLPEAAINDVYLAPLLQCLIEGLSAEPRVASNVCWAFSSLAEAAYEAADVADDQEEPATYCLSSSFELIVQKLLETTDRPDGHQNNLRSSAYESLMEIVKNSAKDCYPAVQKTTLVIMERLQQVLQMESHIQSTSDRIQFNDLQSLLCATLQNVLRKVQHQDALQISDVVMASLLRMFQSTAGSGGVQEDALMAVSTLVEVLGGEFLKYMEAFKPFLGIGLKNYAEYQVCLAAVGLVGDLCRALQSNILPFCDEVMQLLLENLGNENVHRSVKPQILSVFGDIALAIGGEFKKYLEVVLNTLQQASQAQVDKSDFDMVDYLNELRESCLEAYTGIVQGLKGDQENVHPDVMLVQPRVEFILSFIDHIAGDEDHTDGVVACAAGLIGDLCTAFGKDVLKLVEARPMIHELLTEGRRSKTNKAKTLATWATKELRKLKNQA

This assay addresses Importin-β (mouse (endogenous in MEFs)) (UniProt P70168). Briefly: proximity ligation; DuoLink in situ PLA on fixed (4% paraformaldehyde), Triton X-100 permeabilised WT and Nemf^R86S MEFs; primary antibodies to NEMF and Importin-β; mean PLA frequency and intensity by confocal imaging.

Changes are numbered by the printed parent chain. In names and notes the source's numbering stands. These are yes or no findings as the source states them, for the method shown. Binding seen in cells or lysates may run through a third protein. Some results given as binding are weak or reduced against the parent protein; the word gives no strength.

B1: NEMF R86S (protein, UniProt Q8CCP0 1-1064)
chain: MKSRFSTVDLRAVLAELNASLLGMRVNNVYDVDNKTYLIRLQKPDFKATLLLESGIRIHTTEFEWPKNMMPSSFAMKCRKHLKSRSLVSAKQLGVDRIVDFQFGSDEAAYHLIIELYDRGNIVLTDYEYLILNILRFRTDEADDVKFAVRERYPIDHARAAEPLLTLERLTEVIAAAPKGEVLKRVLNPLLPYGPALIEHCLIESGFSGNAKVDEKLESKDIEKILVCVQRAEDYLRKTSNFNGKGYIIQKREAKPSLDADKPAEDILTYEEFHPFLFSQHLQCPYIEFESFDKAVDEFYSKIEGQKIDLKALQQEKQALKKLDNVRKDHENRLEALQQAQEIDKLKGELIEMNLQIVDRAIQVVRSALANQIDWTEIGVIVKEAQAQGDPVACAIKELKLQTNHVTMLLRNPYLLSEEEDGDGDASIENSDAEAPKGKKKKQKNKQLQKPQKNKPLLVDVDLSLSAYANAKKYYDHKRYAAKKTQRTVEAAEKAFKSAEKKTKQTLKEVQTVTSIQKARKVYWFEKFLWFISSENYLIIGGRDQQQNEIIVKRYLTPGDIYVHADLHGATSCVIKNPTGEPIPPRTLTEAGTMALCYSAAWDARVITSAWWVYHHQVSKTAPTGEYLTTGSFMIRGKKNFLPPSYLMMGFSFLFKVDESCVWRHRGERKVRVQDEDMETLTSCTSELMAEEMEQLEGGDSSEEETEELHGMPGDVELMTQVDQEDIAVHSGRDELSSEDGEAKAVTKDQEPIGEMKEEEEDTFEYPDTTIDLSHLQSQRPLQKLAPREESLNSNDSKSQGRRHLSAKERREMKKKKLPCESGDLEVIEEKDKERESAVHTEAYQNTSKNVAAGQPMKRGQKSKMKKMKEKYKDQDDEDRELIMKLLASAGSNKEEKGKKGKKGKPKDEPVKKPPQKPRGGQRVLDVVKEPPSLQVLAHDLQDLAVDDPHDDKEEHDLDQQGNEENLFDSLTGQPHPEDVLMFAIPICAPYTIMTNYKYKVKLTPGVQKKGKAAKTALNSFMHSKEATAREKDLFRSVKDTDLSRNIPGKVKVSAPNLLHVKRK
B1: the binding entry was “binds”.

B2: Nuclear Export Mediator Factor (NEMF), wild type (protein, UniProt Q8CCP0 1-1064)
chain: B1 chain with S86R
As to B2, the binding result is on record as “binds”.
